Laboratory results taken from the supplement of paper PMC10849652.
This is one part of the list.

By UniProt entry, the sequences of proteins in these tests, tags left out. Where a name states a change or a piece, a line headed by the entry shows the natural chain unless it says otherwise.
UniProt Q6P1R3: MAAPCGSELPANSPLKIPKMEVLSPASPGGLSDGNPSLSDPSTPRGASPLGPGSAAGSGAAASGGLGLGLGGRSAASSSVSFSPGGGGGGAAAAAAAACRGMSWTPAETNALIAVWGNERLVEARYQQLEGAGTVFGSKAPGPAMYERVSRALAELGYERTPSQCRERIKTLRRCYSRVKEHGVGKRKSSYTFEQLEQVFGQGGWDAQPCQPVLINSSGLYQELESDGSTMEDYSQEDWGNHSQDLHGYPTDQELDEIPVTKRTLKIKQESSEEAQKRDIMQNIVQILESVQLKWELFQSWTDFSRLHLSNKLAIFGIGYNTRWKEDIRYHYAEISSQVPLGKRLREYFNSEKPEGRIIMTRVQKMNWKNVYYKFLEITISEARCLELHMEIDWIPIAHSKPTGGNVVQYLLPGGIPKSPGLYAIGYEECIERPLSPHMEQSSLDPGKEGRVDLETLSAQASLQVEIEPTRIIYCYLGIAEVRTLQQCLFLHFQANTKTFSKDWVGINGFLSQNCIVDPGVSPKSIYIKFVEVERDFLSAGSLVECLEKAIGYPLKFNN
UniProt O75570: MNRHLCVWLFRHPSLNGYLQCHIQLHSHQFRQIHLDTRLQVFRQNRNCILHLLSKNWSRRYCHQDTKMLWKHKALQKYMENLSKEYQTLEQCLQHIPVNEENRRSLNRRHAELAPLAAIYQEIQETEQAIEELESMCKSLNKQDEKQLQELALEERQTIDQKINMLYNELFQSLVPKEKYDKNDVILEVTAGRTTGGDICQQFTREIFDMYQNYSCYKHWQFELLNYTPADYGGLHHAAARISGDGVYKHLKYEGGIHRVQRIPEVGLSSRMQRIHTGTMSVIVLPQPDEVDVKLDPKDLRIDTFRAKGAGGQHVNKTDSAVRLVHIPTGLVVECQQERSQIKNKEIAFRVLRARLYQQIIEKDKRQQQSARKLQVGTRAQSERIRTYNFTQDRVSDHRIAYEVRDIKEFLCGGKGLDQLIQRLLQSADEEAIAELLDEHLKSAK
UniProt Q9BT17: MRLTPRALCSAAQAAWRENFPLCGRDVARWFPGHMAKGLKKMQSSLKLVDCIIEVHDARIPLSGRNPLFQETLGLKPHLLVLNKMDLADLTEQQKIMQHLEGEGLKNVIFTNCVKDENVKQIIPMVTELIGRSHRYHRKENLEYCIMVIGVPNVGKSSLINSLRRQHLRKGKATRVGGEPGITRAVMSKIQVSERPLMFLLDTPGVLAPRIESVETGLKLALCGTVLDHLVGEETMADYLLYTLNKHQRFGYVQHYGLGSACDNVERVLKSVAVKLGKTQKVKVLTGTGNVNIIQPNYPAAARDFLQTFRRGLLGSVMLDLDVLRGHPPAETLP
UniProt Q9UJ68: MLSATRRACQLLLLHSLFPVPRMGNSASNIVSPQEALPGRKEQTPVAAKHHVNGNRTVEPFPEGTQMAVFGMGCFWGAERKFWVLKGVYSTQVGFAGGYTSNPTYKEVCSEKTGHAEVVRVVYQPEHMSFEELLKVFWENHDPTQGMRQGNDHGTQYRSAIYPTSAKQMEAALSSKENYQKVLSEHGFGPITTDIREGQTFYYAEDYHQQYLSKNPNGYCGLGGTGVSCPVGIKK
UniProt Q49AM1: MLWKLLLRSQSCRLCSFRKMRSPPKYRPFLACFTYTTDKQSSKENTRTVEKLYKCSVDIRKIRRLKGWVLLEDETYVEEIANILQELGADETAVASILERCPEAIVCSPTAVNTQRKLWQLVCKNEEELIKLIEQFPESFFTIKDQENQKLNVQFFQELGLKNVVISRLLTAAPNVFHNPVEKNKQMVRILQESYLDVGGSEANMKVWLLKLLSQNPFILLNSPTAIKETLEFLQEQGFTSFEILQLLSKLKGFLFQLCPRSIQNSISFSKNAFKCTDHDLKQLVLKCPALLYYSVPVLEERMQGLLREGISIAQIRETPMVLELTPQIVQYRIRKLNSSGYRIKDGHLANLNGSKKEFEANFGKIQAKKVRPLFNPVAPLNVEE
UniProt Q14872: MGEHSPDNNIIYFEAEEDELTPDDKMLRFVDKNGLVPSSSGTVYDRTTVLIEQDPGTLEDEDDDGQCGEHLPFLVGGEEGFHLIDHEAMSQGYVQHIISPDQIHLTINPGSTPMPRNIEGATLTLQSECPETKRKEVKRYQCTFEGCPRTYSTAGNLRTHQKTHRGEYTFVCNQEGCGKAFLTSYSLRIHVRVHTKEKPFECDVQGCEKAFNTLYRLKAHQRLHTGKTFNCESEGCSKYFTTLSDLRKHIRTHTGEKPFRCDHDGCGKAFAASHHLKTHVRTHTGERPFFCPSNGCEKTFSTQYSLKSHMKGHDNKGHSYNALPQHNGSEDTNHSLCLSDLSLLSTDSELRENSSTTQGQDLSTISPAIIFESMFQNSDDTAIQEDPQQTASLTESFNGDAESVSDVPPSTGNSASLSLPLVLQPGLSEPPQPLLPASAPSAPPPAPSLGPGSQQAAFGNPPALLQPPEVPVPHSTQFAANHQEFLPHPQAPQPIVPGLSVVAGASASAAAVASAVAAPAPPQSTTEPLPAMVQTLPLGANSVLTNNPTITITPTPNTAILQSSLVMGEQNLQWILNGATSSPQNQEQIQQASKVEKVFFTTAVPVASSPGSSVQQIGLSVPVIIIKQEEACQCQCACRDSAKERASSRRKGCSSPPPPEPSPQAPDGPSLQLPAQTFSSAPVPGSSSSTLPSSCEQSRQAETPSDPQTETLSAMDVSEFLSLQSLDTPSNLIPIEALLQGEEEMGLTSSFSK
UniProt Q93083: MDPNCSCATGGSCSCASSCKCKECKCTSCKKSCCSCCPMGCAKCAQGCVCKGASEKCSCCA
UniProt Q9P0P8: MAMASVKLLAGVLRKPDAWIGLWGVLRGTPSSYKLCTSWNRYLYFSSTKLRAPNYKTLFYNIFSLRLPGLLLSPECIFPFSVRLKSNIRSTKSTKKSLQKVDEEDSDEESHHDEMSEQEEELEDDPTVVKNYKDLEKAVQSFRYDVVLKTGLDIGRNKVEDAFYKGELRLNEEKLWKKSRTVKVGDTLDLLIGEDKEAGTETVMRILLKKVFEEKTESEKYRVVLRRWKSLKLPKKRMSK

What was measured:
Test in all cases: log2 fold change, soluble protein after heating vs DMSO (PISA); higher = thermal stabilisation; K562 lysate, 10 uM; active = over 0.2 and 3.5 SD of the protein, either way, in both replicates (recomputed)
[1] = compound: CN1CC[C@H](c2c(O)cc(O)c3c(=O)cc(-c4ccccc4Cl)oc23)[C@H](O)C1 [alvocidib]
Summary of the method: (§1)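 Pellets of K562 cells were dounce-homogenised in PBS pH 7.4 with 1 mM MgCl2, and the crude extract was held at 1 mg/mL protein for a 30 min treatment with 10 μM compound. Aliquots were heated for 3 min over 48°C-58°C and pooled before NP-40 was added to 0.5% at 4°C. The supernatant from 21,000xg for 90 min was quantified by TMTpro 16plex LC-MS/MS with channel sums equalised. Values are reported from duplicates as log-two fold change in thermal stability relative to solvent controls.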

[2] = compound: CNC(=O)C1=CC=CC=C1NC2=NC(=NC=C2Cl)NC3=C(C=C(C=C3)N4CCOCC4)OC
Summary of the method: as §1

[3] = compound: CNC(=O)c1ccc(Nc2ncc(C(F)(F)F)c(NCc3nccnc3N(C)S(C)(=O)=O)n2)cc1 [defactinib]
Summary of the method: as §1

[4] = compound: CNc1nc(-c2ccc3c(N)n[nH]c3c2)cc(N2C[C@@H](C(=O)NC3CCCCC3)CC[C@H]2C)n1
Summary of the method: as §1

[5] = compound: COC(=O)N[C@@H](C)CNc1nccc(-c2cn(C(C)C)nc2-c2cc(Cl)cc(NS(C)(=O)=O)c2F)n1 [encorafenib]
Summary of the method: as §1

[6] = compound: COC(=O)[C@H](CCSC)NC(=O)C1=C(C=C(C=C1)NC[C@H](CS)N)C2=CC=CC=C2
Summary of the method: as §1

[7] = compound: C[C@@H](Oc1cc(-c2cnn(C3CCNCC3)c2)cnc1N)c1c(Cl)ccc(F)c1Cl [crizotinib]
Summary of the method: as §1

[8] = compound: C[C@H](C1=CC=C(C=C1)C(=O)NC2=C3C=CNC3=NC=C2)N
Summary of the method: as §1

[9] = compound: C[C@H](Nc1ncnc2nc[nH]c12)c1cc2cccc(Cl)c2c(=O)n1-c1ccccc1 [duvelisib]
Summary of the method: as §1

[10] = compound: Cc1cc(Nc2cc(CN3CCOCC3)c3nc(C)c(Cc4ccc(Cl)cc4F)n3n2)n[nH]1 [gandotinib]
Summary of the method: as §1

[11] = compound: Cc1cc(Nc2cc(N3CCN(C)CC3)nc(Sc3ccc(NC(=O)C4CC4)cc3)n2)n[nH]1 [tozasertib]
Summary of the method: as §1

[12] = compound: Cc1ccc(-n2nc(C(C)(C)C)cc2NC(=O)Nc2ccc(OCCN3CCOCC3)c3ccccc23)cc1 [doramapimod]
Summary of the method: as §1

[13] = compound: Cc1cccc(CC(=O)N2CCc3c2ccc(-c2cn(C)c4ncnc(N)c24)c3F)n1
Summary of the method: as §1

[14] = compound: COc1cc(Nc2ncc3c(n2)-c2ccc(Cl)cc2C(c2c(F)cccc2OC)=NC3)ccc1C(=O)O [alisertib]
Summary of the method: as §1

[15] = compound: COc1cc2ncnc(Nc3ccc(F)c(Cl)c3)c2cc1OCCCN1CCOCC1 [gefitinib]
Summary of the method: as §1

[16] = compound: COc1cc2nc(-c3cc(F)ccc3O)nc(N[C@@H]3CNC[C@H]3C(C)(C)O)c2cc1OC
Summary of the method: as §1

[17] = compound: CS(=O)(=O)CCNCc1ccc(-c2ccc3ncnc(Nc4ccc(OCc5cccc(F)c5)c(Cl)c4)c3c2)o1 [lapatinib]
Summary of the method: as §1

[18] = compound: CN1CCc2c(c3ccccc3n2Cc2ccc(C(=O)NO)cc2)C1 [Tubastatin A]
Summary of the method: as §1

[19] = compound: CS(=O)(=O)N1CCN(Cc2cc3nc(-c4cccc5[nH]ncc45)nc(N4CCOCC4)c3s2)CC1 [pictilisib]
Summary of the method: as §1

[20] = compound: Cc1ccc(NC(=O)c2ccc(CN3CC[C@H](N(C)C)C3)c(C(F)(F)F)c2)cc1Nc1nccc(-c2cncnc2)n1 [bafetinib]
Summary of the method: as §1

Measured: log2 fold change

MSANTD2 (UniProt Q6P1R3)
inactive: [1] 0.029 | [2] 0.031 | [3] -0.124 | [4] 0.239 | [5] 0.15 | [6] -0.072 | [7] 0.001 | [8] -0.166 | [9] -0.032 | [10] 0.163 | [11] -0.067 | [12] -0.083 | [13] -0.099

MTRF1 isoform 2 (UniProt O75570)
inactive: [1] -0.06 | [7] 0.051 | [8] 0.232 | [10] -0.192 | [12] 0.035 | [13] 0.272

MTG1 (UniProt Q9BT17)
inactive: [1] -0.082 | [14] 0.09 | [15] -0.294 | [8] 0.014 | [10] 0.004 | [13] 0.16

MSRA (UniProt Q9UJ68)
inactive: [1] 0.017 | [5] 0.216 | [6] 0.225 | [16] 0.08 | [17] -0.228 | [8] 0.053 | [10] 0.005 | [11] -0.121 | [13] -0.078

MTHFD1 (UniProt V9GZ32)
inactive: [14] 0.108 | [16] 0 | [15] -0.073 | [17] -0.067

MTERF2 (UniProt Q49AM1)
inactive: [18] 0.145 | [2] -0.043 | [4] 0.03 | [5] -0.049 | [6] 0.282 | [7] 0.034 | [9] 0.051 | [11] -0.024 | [12] -0.065

Looked up one by one from above, two records:
MTHFD1 (UniProt V9GZ32)
inactive: [14] 0.108 | [16] 0 | [15] -0.073 | [17] -0.067

MTERF2 (UniProt Q49AM1)
inactive: [18] 0.145 | [2] -0.043 | [4] 0.03 | [5] -0.049 | [6] 0.282 | [7] 0.034 | [9] 0.051 | [11] -0.024 | [12] -0.065

Following part:

MRPS14 (UniProt O60783)
inactive: [1] 0.043 | [18] -0.037 | [3] 0.068 | [5] 0 | [6] -0.049 | [14] 0.155 | [16] 0.102 | [15] -0.042 | [17] 0.115 | [19] 0.131 | [7] -0.031 | [8] -0.019 | [10] -0.09 | [11] 0.085 | [12] -0.006 | [20] -0.003 | [13] -0.05

MTF1 (UniProt Q14872)
inactive: [1] 0.106 | [8] 0.248 | [10] -0.035 | [13] -0.189

MT1L (UniProt Q93083)
inactive: [1] 0.028 | [19] 0.378 | [7] -0.066 | [8] 0.014 | [10] -0.004 | [12] -0.071 | [20] 0.003 | [13] -0.074

MTURN (UniProt Q8N3F0)
inactive: [18] -0.048 | [4] 0.003 | [5] 0.021 | [6] -0.033 | [7] -0.05 | [9] -0.015 | [11] 0.061 | [12] 0.006

MTRES1 (UniProt Q9P0P8)
inactive: [18] 0.005 | [2] -0.003 | [3] 0.018 | [4] 0.004 | [5] 0.038 | [6] -0.111 | [14] 0.091 | [16] -0.049 | [15] 0.037 | [17] -0.03 | [19] 0.015 | [7] -0.053 | [9] 0.008 | [11] 0.027 | [12] 0.089 | [20] 0.119
